Laboratory results reported in paper doi:10.1101/2021.04.12.439405 (bioRxiv, 2021).
Residue numbers refer to the chain shown, from its start. These are yes or no findings as the source states them, for the method shown. Some entries that bind do so weakly or less than the wild type. For some assays here: Sequences can lack the tags named with a protein.

Columns and labels:
[1] = molecular target: T1, MukB-His (wild type MukB) (E. coli, UniProt P22523 1-1486); experiment: co-purification
T1 sequence (looked up): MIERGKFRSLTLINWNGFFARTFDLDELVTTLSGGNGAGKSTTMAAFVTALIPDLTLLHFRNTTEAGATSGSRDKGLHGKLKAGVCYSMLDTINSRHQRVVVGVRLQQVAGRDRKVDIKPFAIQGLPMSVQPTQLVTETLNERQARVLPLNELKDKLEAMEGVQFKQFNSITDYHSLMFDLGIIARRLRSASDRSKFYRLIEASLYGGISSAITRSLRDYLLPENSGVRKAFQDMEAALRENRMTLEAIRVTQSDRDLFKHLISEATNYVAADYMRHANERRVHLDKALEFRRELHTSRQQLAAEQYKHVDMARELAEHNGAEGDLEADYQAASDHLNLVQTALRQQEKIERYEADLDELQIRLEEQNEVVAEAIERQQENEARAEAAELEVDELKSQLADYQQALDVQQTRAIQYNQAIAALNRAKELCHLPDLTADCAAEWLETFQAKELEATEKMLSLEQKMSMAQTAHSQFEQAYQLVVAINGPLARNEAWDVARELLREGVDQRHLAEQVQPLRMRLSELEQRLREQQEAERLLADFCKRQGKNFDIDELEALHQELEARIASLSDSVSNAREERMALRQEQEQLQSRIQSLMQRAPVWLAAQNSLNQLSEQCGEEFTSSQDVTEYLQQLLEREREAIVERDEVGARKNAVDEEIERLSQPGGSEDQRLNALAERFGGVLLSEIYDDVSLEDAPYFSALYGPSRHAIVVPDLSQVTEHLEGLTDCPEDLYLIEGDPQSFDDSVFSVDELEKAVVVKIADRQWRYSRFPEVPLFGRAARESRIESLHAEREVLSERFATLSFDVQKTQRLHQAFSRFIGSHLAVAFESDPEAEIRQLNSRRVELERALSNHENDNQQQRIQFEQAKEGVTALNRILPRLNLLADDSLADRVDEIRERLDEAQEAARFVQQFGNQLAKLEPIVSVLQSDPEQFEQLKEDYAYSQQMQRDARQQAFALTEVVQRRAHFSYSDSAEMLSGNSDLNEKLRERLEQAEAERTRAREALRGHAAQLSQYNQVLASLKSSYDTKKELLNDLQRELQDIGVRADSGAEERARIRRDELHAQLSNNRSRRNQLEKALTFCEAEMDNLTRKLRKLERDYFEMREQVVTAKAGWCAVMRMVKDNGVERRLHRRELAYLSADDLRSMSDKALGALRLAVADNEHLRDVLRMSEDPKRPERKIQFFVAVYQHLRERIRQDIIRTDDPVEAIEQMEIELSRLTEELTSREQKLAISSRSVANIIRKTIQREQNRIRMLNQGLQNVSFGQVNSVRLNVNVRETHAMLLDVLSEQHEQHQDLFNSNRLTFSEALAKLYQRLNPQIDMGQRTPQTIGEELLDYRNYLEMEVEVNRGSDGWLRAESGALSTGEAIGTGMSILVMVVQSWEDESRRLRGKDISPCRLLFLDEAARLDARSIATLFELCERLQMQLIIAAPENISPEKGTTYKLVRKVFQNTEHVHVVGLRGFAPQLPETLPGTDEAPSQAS

MukB^V1124E (E. coli) = molecular target: T2, MukB^V1124E (E. coli) (UniProt P22523); experiment: co-purification
T2 sequence: T1 sequence (looked up) with V1124E

binding [1]: binds
binding (MukB^V1124E (E. coli)): binds
Substance: Acyl Carrier Protein (AcpP), co-purified with MukB proteins (from UniProt P0A6A8 1-78)
